Consider 1 substance from PMC12815461 (2026).

Sequences of proteins named here, by UniProt entry; tags and fusion partners are left off.
UniProt Q12888: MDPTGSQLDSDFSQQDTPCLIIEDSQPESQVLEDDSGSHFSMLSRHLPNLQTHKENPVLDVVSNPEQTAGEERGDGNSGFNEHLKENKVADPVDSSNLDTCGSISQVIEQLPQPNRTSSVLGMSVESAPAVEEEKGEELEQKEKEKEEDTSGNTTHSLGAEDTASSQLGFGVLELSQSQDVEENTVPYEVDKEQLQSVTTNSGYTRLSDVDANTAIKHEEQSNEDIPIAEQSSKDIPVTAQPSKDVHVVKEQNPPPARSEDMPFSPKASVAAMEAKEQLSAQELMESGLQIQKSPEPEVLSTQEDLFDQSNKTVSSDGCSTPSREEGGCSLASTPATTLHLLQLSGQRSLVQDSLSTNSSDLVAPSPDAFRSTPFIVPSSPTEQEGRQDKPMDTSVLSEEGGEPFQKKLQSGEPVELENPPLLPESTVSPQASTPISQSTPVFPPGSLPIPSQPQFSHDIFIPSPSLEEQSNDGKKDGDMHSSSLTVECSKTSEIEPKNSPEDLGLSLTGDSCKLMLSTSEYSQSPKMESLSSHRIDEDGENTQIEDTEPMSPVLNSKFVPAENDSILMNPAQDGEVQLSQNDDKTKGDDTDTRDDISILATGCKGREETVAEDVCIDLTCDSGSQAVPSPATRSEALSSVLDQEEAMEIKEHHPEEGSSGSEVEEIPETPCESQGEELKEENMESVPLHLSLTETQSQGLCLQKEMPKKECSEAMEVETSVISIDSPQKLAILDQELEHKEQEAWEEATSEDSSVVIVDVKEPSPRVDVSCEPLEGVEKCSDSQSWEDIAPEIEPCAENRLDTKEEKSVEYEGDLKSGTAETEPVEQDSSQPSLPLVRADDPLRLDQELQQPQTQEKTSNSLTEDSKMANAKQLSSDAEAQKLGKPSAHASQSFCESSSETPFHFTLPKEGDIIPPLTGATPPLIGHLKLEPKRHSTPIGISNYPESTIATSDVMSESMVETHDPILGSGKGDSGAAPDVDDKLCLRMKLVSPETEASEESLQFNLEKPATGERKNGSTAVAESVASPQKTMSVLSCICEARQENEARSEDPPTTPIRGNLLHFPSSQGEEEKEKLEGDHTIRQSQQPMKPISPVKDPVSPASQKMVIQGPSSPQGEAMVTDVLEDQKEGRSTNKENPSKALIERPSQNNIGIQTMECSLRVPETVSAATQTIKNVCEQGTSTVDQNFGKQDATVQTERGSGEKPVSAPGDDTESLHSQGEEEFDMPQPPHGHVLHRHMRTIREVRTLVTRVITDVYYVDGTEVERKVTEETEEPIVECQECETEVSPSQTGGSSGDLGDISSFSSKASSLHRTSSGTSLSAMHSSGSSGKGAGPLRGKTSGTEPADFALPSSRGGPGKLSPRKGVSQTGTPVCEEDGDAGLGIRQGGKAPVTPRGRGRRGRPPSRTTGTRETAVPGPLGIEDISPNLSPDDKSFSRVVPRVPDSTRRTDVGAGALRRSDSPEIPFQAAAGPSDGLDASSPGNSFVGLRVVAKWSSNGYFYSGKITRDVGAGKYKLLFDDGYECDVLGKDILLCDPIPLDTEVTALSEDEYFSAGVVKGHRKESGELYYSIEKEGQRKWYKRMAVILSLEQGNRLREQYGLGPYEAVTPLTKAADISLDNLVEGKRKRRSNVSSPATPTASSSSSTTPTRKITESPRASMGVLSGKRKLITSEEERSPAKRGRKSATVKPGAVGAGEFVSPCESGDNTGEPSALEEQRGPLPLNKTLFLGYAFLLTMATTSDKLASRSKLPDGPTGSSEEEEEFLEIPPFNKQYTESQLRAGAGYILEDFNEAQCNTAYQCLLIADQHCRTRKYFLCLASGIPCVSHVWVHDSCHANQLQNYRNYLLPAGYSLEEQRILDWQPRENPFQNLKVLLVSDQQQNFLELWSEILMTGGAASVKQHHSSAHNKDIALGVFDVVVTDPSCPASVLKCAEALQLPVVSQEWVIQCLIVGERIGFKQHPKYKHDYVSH

Where a chain is given by its changes, count along the chain named. These are yes or no findings as the source states them, for the method shown. In cells and extracts the contact can be indirect. These calls come from enrichment with a bait or labelling near it, and not all partners need be listed. Tags and fused reporters may be left off the sequences shown.

The target of experiment [1] is T1, FLAG-tagged GMCL1 E142K (human) (UniProt Q96IK5).
T1 sequence: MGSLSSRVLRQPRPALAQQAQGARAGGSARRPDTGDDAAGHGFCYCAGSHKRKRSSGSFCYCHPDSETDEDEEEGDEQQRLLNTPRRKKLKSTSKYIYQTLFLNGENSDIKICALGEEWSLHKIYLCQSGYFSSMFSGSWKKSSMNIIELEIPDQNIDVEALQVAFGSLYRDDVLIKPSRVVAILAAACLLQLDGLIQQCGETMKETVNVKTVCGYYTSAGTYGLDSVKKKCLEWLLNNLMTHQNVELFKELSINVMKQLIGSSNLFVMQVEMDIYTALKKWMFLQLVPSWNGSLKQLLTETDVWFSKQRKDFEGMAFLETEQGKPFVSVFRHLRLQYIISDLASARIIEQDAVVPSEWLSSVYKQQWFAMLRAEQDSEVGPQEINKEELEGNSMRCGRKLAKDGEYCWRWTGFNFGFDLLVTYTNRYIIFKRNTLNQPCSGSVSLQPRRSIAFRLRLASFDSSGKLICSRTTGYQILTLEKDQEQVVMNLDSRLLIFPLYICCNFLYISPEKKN
Description: affinity purification with mass spectrometry; FLAG-GMCL1 WT, EK or BBO transfected into HEK293T for 24 hr; FLAG-M2 beads, elution with 3xFLAG peptide, MS/MS; SAINT scores >0.70 and FDR <5%, WT or EK against BBO.

Experiment [2] has as its target T2, FLAG-tagged wild-type GMCL1 (germ cell-less protein-like 1) (human) (UniProt Q96IK5).
T2 sequence: T1 sequence with K142E
The description is as above.

“53BP1 (p53-binding protein 1), endogenous in HEK293T (from UniProt Q12888 1-1972)”: the binding entry in experiment [1] and in experiment [2] was “binds” in each case.
